Test results as given in paper PMC12324092.
These are yes or no findings as the source states them, for the method shown. Binding seen in cells or lysates may run through a third protein. Some results given as binding are weak or reduced against the parent protein; the word gives no strength.

Sequences of proteins named here, by UniProt entry; tags and fusion partners are left off.
UniProt P70507: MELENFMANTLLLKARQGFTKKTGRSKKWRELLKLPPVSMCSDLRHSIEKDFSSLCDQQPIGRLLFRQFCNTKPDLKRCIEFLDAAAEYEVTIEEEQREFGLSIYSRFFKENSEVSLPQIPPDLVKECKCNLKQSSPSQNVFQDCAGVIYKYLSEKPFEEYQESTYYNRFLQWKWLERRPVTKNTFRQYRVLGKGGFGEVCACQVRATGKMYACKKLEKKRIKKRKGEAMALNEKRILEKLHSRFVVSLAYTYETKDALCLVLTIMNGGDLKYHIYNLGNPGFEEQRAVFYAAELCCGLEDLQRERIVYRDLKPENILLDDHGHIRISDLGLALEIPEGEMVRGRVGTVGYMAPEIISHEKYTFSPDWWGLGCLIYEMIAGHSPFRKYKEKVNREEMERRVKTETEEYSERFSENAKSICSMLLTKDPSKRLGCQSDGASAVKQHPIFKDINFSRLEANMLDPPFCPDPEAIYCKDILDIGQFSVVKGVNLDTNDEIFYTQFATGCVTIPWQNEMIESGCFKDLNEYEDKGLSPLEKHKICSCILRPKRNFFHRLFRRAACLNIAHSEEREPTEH

Target: G protein-coupled receptor kinase 4 (rat (endogenous in renal cortex of WKY rats and SHRs)) (UniProt P70507)
Assay: co-IP; lysate (300 ug protein/mL) of renal cortex of WKY rats and SHRs incubated with anti-GRK4 antibody (5 ug/mL) for 1 h and protein-A/G plus-agarose at 4°C overnight; immunoblot with anti-Mas receptor antibody; IgG as negative control, anti-Mas receptor antibody as positive control

B1: Mas receptor (receptor, UniProt P12526 1-324)
chain: MDQSNMTSFAEEKAMNTSSRNASLGTSHPPIPIVHWVIMSISPLGFVENGILLWFLCFRMRRNPFTVYITHLSIADISLLFCIFILSIDYALDYELSSGHYYTIVTLSVTFLFGYNTGLYLLTAISVERCLSVLYPIWYRCHRPKHQSAFVCALLWALSCLVTTMEYVMCIDSGEESHSQSDCRAVIIFIAILSFLVFTPLMLVSSTILVVKIRKNTWASHSSKLYIVIMVTIIIFLIFAMPMRVLYLLYYEYWSTFGNLHNISLLFSTINSSANPFIYFFVGSSKKKRFRESLKVVLTRAFKDEMQPRRQEGNGNTVSIETVV
binding: binds
